Article PMC8642992
No constants are given. Whether binding was seen depends on the method and setting. Binding seen in cells or lysates may run through a third protein. Some entries that bind do so weakly or less than the wild type.

Chains of the proteins cited; added tags and fusions are not shown. Lines headed by an entry give the natural chain unless they say otherwise; changes in a name come on top. A line that says so, or that is headed by a name, gives the form on record, which may keep a tag or linker.
UniProt P25054: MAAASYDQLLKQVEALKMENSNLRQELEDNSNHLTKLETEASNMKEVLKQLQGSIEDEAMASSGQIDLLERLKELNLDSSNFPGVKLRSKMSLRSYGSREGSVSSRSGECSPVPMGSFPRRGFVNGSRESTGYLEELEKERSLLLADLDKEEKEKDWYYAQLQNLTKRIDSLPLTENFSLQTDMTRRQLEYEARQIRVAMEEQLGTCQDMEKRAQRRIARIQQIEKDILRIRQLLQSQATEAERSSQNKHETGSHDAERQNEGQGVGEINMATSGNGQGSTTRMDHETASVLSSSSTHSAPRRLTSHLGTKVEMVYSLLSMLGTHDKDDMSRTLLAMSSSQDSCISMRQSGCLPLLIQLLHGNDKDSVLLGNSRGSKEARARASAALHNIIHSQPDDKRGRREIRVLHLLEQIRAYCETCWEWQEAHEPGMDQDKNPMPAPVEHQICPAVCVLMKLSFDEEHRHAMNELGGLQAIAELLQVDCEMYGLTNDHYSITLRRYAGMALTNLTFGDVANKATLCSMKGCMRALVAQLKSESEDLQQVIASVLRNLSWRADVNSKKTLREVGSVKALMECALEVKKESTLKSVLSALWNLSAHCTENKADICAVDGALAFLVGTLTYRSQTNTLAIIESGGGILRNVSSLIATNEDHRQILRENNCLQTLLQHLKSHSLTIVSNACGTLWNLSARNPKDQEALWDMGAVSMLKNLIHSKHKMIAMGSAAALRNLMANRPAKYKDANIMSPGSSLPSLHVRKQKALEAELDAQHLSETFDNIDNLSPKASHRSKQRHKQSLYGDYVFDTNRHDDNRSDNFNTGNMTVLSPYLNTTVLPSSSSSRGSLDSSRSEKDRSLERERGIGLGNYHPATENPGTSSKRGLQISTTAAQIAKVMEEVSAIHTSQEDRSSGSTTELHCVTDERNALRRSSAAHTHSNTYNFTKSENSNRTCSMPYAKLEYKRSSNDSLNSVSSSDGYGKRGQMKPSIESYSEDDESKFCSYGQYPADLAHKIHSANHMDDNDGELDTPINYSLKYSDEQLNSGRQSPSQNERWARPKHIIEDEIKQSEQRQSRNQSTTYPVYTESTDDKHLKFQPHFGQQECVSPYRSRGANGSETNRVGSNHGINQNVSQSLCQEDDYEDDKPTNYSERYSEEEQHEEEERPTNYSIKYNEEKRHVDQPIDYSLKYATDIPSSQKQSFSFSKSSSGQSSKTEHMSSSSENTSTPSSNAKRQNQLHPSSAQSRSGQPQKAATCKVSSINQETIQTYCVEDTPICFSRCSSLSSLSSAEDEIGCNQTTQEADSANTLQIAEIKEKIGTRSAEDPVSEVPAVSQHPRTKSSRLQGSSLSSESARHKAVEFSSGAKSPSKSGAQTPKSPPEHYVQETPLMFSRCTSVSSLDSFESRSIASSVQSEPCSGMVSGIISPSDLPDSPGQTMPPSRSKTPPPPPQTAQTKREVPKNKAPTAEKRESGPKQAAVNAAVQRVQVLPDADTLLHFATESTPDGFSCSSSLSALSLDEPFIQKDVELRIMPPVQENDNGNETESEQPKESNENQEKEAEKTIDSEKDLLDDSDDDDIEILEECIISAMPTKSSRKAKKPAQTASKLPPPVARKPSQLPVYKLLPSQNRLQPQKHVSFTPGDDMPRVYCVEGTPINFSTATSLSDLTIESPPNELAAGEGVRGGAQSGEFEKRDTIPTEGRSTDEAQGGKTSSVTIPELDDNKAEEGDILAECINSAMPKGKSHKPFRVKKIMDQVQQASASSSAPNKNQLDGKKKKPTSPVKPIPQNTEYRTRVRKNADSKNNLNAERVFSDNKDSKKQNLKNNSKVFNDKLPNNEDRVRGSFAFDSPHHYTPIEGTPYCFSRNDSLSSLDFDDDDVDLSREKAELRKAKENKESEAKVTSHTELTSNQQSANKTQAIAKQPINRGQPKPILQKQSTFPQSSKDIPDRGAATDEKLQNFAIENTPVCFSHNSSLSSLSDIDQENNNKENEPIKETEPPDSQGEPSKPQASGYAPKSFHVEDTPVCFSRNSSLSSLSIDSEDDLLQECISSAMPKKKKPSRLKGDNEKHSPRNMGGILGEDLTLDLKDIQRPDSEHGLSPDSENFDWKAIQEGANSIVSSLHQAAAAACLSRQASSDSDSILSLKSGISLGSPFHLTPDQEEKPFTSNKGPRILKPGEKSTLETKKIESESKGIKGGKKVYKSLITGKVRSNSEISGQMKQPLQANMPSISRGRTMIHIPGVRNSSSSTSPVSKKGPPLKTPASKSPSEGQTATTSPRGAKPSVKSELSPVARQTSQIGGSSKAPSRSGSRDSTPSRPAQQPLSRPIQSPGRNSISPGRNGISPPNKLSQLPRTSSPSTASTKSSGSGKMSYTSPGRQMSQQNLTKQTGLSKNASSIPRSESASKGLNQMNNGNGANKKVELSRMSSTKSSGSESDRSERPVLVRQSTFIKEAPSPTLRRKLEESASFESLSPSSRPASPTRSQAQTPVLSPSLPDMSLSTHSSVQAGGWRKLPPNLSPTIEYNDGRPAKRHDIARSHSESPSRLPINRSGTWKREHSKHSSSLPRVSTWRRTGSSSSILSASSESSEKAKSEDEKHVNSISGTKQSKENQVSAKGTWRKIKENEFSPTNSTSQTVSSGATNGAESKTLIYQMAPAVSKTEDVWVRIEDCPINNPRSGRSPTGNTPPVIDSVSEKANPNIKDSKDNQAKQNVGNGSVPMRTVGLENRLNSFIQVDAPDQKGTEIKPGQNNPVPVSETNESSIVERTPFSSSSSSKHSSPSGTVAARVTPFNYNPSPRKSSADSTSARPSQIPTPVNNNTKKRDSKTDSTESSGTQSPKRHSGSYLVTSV
UniProt O15169: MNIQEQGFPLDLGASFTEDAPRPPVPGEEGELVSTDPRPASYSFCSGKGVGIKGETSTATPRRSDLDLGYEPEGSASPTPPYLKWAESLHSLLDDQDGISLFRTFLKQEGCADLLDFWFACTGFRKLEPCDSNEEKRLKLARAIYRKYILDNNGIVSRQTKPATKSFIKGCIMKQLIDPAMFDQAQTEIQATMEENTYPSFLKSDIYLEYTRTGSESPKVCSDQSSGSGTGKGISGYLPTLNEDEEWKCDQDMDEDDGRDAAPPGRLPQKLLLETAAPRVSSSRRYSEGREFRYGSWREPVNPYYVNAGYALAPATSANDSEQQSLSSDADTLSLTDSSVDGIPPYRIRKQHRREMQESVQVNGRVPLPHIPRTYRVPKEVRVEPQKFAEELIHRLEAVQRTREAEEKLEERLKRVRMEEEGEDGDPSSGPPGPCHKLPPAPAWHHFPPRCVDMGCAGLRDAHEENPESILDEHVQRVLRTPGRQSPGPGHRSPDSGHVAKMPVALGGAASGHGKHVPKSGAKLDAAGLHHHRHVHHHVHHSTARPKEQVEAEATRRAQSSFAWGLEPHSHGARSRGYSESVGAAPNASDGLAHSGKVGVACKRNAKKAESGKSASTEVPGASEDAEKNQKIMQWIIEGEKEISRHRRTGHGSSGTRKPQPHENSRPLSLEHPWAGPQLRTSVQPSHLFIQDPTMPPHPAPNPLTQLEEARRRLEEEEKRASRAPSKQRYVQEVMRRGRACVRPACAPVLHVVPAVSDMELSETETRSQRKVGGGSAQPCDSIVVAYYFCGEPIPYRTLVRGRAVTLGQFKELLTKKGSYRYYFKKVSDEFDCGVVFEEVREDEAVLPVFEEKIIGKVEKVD
AXIN1-295aa (O15169, form named): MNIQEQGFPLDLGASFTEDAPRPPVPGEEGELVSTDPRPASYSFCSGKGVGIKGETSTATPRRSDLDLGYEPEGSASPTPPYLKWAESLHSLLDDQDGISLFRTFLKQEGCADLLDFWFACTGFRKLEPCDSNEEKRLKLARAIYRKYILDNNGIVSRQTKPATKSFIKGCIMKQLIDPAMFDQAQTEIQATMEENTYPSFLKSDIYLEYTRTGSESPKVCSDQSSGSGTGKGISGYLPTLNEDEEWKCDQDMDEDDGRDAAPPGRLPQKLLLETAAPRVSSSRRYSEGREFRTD

Target: adenomatous polyposis coli (APC) (human (endogenous in 293 T)) (UniProt P25054)
Assay: co-IP; IP with anti-APC antibody from lysate of 293 T cells with or without circAXIN1 overexpression (also in increasing doses); immunoblot

| binding | Substance |
| --- | --- |
| binds | AXIN1 (from UniProt O15169 1-862) |
| binds | AXIN1-295aa (from UniProt O15169 1-293) |
